Laboratory results published in patent US20250345370A1, “MICROBIAL LIBERATION OF N-METHYLSEROTONIN FROM ORANGE FIBER” (Washington University, priority 2022, published 2025).
Some entries share one result that the patent states for a list of compounds.

Assay: In vitro screening of bacterial strains for N-methylserotonin releasing activity from orange fiber
Assay type: cell-based, human gut bacterial strains
Settings: Mega medium 2.0, orange fiber
Method: In vitro screening of bacterial strains for N-methylserotonin releasing activity. A given bacterial strain was grown in monoculture at 37° C. in TYG medium in an anaerobic chamber (atmosphere; 75% N2, 20% CO2 and 5% H2) to stationary phase. An aliquot was then added to 10 mL of fresh TYG medium with or without 50 mg of orange fiber that had been sterilized by gamma irradiation (30-50 KGy); the mixture was incubated under anaerobic conditions without shaking for 72 hours. A 200 μL aliquot was then removed for targeted LC-QqQ-MS measurement of N-methylserotonin levels; another aliquot was used to define the number of colony-forming units so that levels of the analyte were expressed per 10^6 cells. An identical protocol was used to compare the amount of N-methylserotonin released when two other rich media, MEGA medium 2.0 and Wilkins-Chalgren anaerobe broth (Thermo-Fisher), were used in lieu of TYG. All incubations were performed in triplicate for each condition. […]
Bacterial strains capable of mining of N-methylserotonin from orange fiber in vitro. […] N-methylserotonin was quantified using targeted LC-QqQ-MS. […] At this time point, Bacteroides ovatus strain TSDC 17.2 and a strain of Parabacteroides distasonis yielded similar quantities of product (29±1 and 24±2 ng N-methylserotonin/10^6 cells, respectively). […]

**Q.** Which N-methylserotonin levels does the source give for Parabacteroides distasonis here?
**A.** The N-methylserotonin levels was 5-25 ng/10^6 cells.
